The target of the assay is T1, Centriolar coiled-coil protein 110 (CP110), endogenous, MEF cells (mouse (endogenous in MEF)) (UniProt Q7TSH4).
T1 sequence: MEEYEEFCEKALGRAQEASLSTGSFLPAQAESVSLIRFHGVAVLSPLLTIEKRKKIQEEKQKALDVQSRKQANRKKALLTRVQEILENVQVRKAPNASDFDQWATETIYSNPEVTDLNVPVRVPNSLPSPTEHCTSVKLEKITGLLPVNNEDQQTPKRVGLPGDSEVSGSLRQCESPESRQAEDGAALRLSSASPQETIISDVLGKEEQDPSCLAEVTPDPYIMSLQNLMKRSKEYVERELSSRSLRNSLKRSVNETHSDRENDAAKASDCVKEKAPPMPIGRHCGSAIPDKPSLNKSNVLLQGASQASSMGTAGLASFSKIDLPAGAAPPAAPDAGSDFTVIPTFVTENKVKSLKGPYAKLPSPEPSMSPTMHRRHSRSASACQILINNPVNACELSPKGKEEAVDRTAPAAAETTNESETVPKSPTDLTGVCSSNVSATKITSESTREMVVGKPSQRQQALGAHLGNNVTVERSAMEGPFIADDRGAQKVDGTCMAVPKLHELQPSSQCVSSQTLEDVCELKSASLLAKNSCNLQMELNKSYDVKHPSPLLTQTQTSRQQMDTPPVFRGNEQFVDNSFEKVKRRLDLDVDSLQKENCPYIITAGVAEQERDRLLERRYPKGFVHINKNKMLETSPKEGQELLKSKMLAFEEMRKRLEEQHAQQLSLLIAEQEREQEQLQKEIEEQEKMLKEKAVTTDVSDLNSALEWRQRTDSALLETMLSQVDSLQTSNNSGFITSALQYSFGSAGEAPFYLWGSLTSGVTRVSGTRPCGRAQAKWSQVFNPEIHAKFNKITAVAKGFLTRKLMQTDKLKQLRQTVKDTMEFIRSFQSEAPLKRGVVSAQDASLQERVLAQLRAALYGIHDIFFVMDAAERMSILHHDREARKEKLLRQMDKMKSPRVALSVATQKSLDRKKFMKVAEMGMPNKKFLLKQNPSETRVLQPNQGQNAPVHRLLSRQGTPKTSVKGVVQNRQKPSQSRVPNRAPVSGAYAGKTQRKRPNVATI
As to the kind of experiment: affinity purification with mass spectrometry; proteins co-immunoprecipitated with anti-CP110 or anti-LC3 antibodies in MEF cells, trypsin digestion, LC-MS/MS.

Results are given in words; binding and its absence hold for the method and conditions named. Binding seen in cells or lysates may run through a third protein. These calls come from enrichment with a bait or labelling near it, and not all partners need be listed.

B1: GST-NudCL2 (natural protein, mouse, UniProt Q9CQ48 1-157, looked up)
chain: MSAPFEERSGVVPCGTPWGQWYQTLEEVFIEVQVPPGTRAQDIQCGLQSRHVALAVGGREILKGKLFDSTIADEGTWTLEDRKMVRIVLTKTKRDAANCWTSLLESEYAADPWVQDQMQRKLTLERFQKENPGFDFSGAEISGNYTKGGPDFSNLEK
notes: Full-length mouse NudCL2 amplified from total cDNA by RT-PCR and cloned into pGEX5X-1; also called purified GST-NudCL2; source: Escherichia coli BL21, purified
In the case of B1, the binding result is “binds”.

These data come from paper PMC8563757, “NudCL2 is an autophagy receptor that mediates selective autophagic degradation of CP110 at mother centrioles to promote ciliogenesis” (Cell Research, 2021).
